The data set is described as follows: general procedure: Fmoc solid-phase peptide synthesis; Tentagel rink amide resin; HCTU and COMU. As to conditions: whole synthesis; for final HPLC purity: 210 nm; for isolated yield: Fmoc quantification after 1st amino acid.

The text below walks through data of publication PMC4834642 (Nature Communications, 2016).

Regarding D D E 2 E Q F 1 Y H L L S F N A V, the “final HPLC purity” value is 97%. Moreover, the isolated yield (run 1) was determined as 23%. Also, the isolated yield (run 2) is listed as 21%.

As for D D E K E Q F L Y H L L S F N A V, where the note is “b133 entry 1a”, the “final HPLC purity” value amounted to 84% and the isolated yield amounted to 43%. For the setting “b133 entry 1b”, the “final HPLC purity” value was more than 99% and the isolated yield was 70%.

Turning to D D E 1 E Q F 2 Y H L L S F N A V, under “run 1”, the “final HPLC purity” value is given as 95% and the isolated yield is reported as 12%. Besides, where the note is “run 2”, the “final HPLC purity” value is on record as 88% and the isolated yield was found to be 13%.

Turning to D D E 6 E Q F 6 Y H L L S F N A V, under “b133 entry 2a”, the “final HPLC purity” value was more than 99% and the isolated yield worked out at 60%. Moreover, where the note is “b133 entry 2b”, the “final HPLC purity” value was 98% and the isolated yield was 65%.

Consider D D E 2 E Q F 2 Y H L L S F N A V, for which, under “run 1”, the “final HPLC purity” value is 98% and the isolated yield was 16%. Moreover, for the setting “run 2”, the “final HPLC purity” value turned out to be 96% and the isolated yield was 15%.
